Laboratory results: PubChem BioAssay AID1671190 (National Center for Advancing Translational Sciences (NCATS), 2021)
Hit rate of the full screen: of about 580,000 compounds, about 6,100 (1.1%) were called active. Inconclusive means that the source gave no clear call. Such entries were picked first, then a sample of the others. Calls come from the whole dose curve; as a rule, active = well fitted inhibition curve with a large enough effect; inconclusive = small, poorly fitted or top-dose-only effect, or another doubt; inactive = no such curve, though single readings can be large or run the other way. Potencies of inconclusive entries are doubtful fits and often do not repeat.

By UniProt entry, the sequences of proteins in these tests, tags left out.
UniProt P18054, whole entry, looked up: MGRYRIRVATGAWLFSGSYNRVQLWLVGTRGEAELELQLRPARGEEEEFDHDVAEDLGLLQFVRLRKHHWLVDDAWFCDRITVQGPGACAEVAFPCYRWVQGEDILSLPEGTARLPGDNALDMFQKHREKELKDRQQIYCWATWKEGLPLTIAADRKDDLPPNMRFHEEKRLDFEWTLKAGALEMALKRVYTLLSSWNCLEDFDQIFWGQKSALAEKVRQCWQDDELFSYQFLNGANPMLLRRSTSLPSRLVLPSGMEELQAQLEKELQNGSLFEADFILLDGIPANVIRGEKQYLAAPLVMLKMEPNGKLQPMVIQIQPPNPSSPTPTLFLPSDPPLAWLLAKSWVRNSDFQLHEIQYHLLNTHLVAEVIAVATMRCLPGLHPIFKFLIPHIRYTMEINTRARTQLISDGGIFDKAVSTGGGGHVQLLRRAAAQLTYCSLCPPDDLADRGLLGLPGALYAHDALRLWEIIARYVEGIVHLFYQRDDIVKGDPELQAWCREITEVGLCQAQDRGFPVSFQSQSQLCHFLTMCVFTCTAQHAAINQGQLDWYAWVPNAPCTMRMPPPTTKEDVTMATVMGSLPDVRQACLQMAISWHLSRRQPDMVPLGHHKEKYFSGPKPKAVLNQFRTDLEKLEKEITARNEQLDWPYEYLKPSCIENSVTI

Target: Polyunsaturated fatty acid lipoxygenase ALOX12 (Homo sapiens) (UniProt P18054)
Assay: Primary qHTS assay for inhibitors of human arachidonate 12S-lipoxygenase (ALOX12): Round 2
Conditions: purified 12hLO, xylenol orange hydroperoxide absorbance; activity change, negative = inhibition: at 108 µM (top of the series) unless noted
In short: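 Purified human 12hLO (150 nM final) in 25 mM Hepes, 0.01% Triton X-100, pH 7.0 was preincubated 15 min at room temperature with compound. Then 40 uM arachidonic acid was added, 30 min. Hydroperoxide was read by Fe-XO absorbance ratio 573/405 nm.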
% is set by controls: 0 for no effect and ±100 for the full control effect; potency is the fitted concentration of half-maximal effect.

Question: Which Potency does the source give for `CC(=O)c1ccc(NC(=O)Nc2sc(NS(=O)(=O)c3ccccc3)nc2C)cc1` here?
Answer: inconclusive: 22.4 µM [inhibitor, full curve, poor fit]

Question: `CCOC(=O)c1c(NC(=O)CCl)sc(C(=O)N(CC)CC)c1C` was tested. Which Potency did it give?
Answer: inconclusive: 50.1 µM [inhibitor, partial curve, poor fit]

Question: With `COc1cc(/C=C(/C#N)C(=O)c2c(Cl)cccc2Cl)cc(OC)c1OC` as the compound, how does the Potency read?
Answer: active: 0.501 µM

Question: How did the Potency turn out when `CCC1Oc2ccc(NC(=O)c3ccccc3Cl)cc2CN(Cc2ccccc2F)C1=O` (configuration not stated) was run?
Answer: inconclusive: 28.2 µM [inhibitor, full curve]

Question: How did the Potency turn out when `O=C(Cc1cccs1)Nc1nnc(SCc2cccc3ccccc23)s1` was run?
Answer: inconclusive: 12.6 µM [inhibitor, partial curve, poor fit]

Question: Which Potency does the source give for `Cc1ccc(S(=O)(=O)N2CCN(C(=O)N3CCCC3)CC2)cc1` here?
Answer: inconclusive: 39.8 µM [inhibitor, partial curve, poor fit]

Question: `COc1ccccc1Nc1nc(-c2ccc3c(c2)CC(C)N3S(C)(=O)=O)cs1` (configuration not stated) was tested. Which Potency did it give?
Answer: active: 39.8 µM

Question: `COC(=O)c1cccc(NC(=O)Cc2nc(-c3ccccc3)sc2-c2ccc(C)cc2)c1` was tested. Which Potency did it give?
Answer: inactive

Question: How did the Potency turn out when `Cc1ccc(C)c(NC(=O)c2ccc(=O)n(Cc3ccc(F)cc3)c2)c1` was run?
Answer: inconclusive: 89.1 µM [inhibitor, partial curve, poor fit]

Question: For `O=C(O)c1cc(-c2ccc(Cl)cc2)n(-c2ccc(F)cc2)n1`, which Potency is on record?
Answer: inconclusive: 35.5 µM [inhibitor, single point]

Question: With `O=[N+]([O-])c1ccc(Cl)c(S(=O)(=O)Nc2cccc(-c3ccc(N4CCOCC4)nn3)c2)c1` as the compound, how does the Potency read?
Answer: inactive

Question: For `CC(C)c1ccc(NC(=O)C2CCN(c3ncnc4c3nc3n4CCCCC3)CC2)cc1`, which Potency is on record?
Answer: inactive

Question: Which Potency does the source give for `Cc1c(C(=O)N2CCn3nc(CO)cc3C2)cnc2cc(=O)[nH]n12` here?
Answer: inconclusive: 7.94 µM [inhibitor, full curve, poor fit]

Question: How did the Potency turn out when `O=C(Nc1ccc(F)cc1)c1ccc2c(c1)OCCN(C1CCC1)C2` was run?
Answer: inconclusive: 126 µM [inhibitor, partial curve, poor fit]

Question: With `Cc1ccccc1C(=O)Nc1cnc2sc3c(n2c1=O)CCC(C(C)(C)C)C3` (configuration not stated) as the compound, how does the Potency read?
Answer: inactive

Question: Which Potency does the source give for `O=C(COc1c(Cl)cccc1Cl)NN1C(=O)CSC1=S` here?
Answer: inactive

Question: Which Potency does the source give for `Cc1nc2nc(NCc3ccc(Cl)cc3)[nH]n2c(=O)c1C` here?
Answer: inactive

Question: Which Potency does the source give for `COc1cccc(CNC(=O)c2cc(C3CC3)nc3c2cnn3C(C)C)c1` here?
Answer: inconclusive: 7.94 µM [inhibitor, full curve, poor fit]

Question: How did the Potency turn out when `CCC(C)NC(=O)CN1C(=O)NC2(CCC(C)CC2)C1=O` (configuration not stated) was run?
Answer: inactive

Question: How did the Potency turn out when `N#Cc1cc(Sc2ccccn2)c(Sc2ccccn2)cc1C#N` was run?
Answer: inconclusive: 39.8 µM [inhibitor, partial curve, poor fit]

Question: `COc1ccc(C(=O)Nc2c(NCc3ccccc3)c3ccccc3oc2=O)cc1Br` was tested. Which Potency did it give?
Answer: inconclusive: 44.7 µM [inhibitor, partial curve, poor fit]

Question: For `OC(CCN1CCCCC1)(c1ccccc1)C1C[C@@H]2C=C[C@H]1C2` (some centres not stated), which Potency is on record?
Answer: inactive

Question: With `Cc1cc(C)nc(NS(=O)(=O)c2ccc(N/C=C/C(=O)c3ccc(Cl)c(Cl)c3)cc2)n1` as the compound, how does the Potency read?
Answer: inconclusive: 79.4 µM [inhibitor, partial curve, poor fit]

Question: Which Potency does the source give for `COc1ccc2[nH]cc(S(=O)(=O)c3ccc(C)cc3)c2c1` here?
Answer: inconclusive: 141 µM [inhibitor, single point]

Question: With `CCOc1ccccc1CN1CCC2(CCN(C(C)=O)CC2)Oc2ccccc21` as the compound, how does the Potency read?
Answer: inconclusive: 56.2 µM [inhibitor, single point]

Question: Which Potency does the source give for `CC1(c2ccccc2)N(Cc2ccccc2C#N)C(=O)OC12CCN(CCc1ccccc1)CC2` (configuration not stated) here?
Answer: inconclusive: 15.8 µM [inhibitor, partial curve, poor fit]

Question: With `c1cncc(-c2cc(-n3ccnc3)ncn2)c1` as the compound, how does the Potency read?
Answer: active: 44.7 µM

Question: Which Potency does the source give for `Cc1ccc(Br)c(SCC(=O)O)c1` here?
Answer: inactive

Question: For `O=C(NC(NC(=O)c1ccccc1)c1ccc(F)cc1)c1ccccc1`, which Potency is on record?
Answer: inconclusive: 39.8 µM [inhibitor, single point]

Question: With `Cc1ccc(S(=O)(=O)c2nc(-c3cccs3)oc2SC(C)c2ccccc2)cc1` (configuration not stated) as the compound, how does the Potency read?
Answer: inconclusive: 50.1 µM [inhibitor, partial curve]

Question: How did the activity change, negative = inhibition turn out when `O=C1NC(=NC2CCCC2)C2(CCCN([S+](=O)([O-])c3cccc(C(F)(F)F)c3)C2)N1c1cc(F)cc(F)c1` (configuration not stated) was run?
Answer: inconclusive: -34.2% [inhibitor]

Question: For `O=C(CN(Cc1ccccc1)S(=O)(=O)c1ccc(Br)cc1)NCc1ccco1`, which Potency is on record?
Answer: inconclusive: 44.7 µM [inhibitor, partial curve, poor fit]

Question: For `Fc1ccccc1CNC(=S)Nc1ccc(Cl)cc1`, which Potency is on record?
Answer: inconclusive: 50.1 µM [inhibitor, partial curve, poor fit]

Question: With `COc1ccc(C2Cn3nnc(-c4nc(-c5ccc(C)c(C)c5)no4)c3CO2)cc1` (configuration not stated) as the compound, how does the Potency read?
Answer: inactive

Question: `Cc1ccc(CN2CCN(C(=O)c3ccn(COc4cccc(Cl)c4)n3)CC2)cc1` was tested. Which Potency did it give?
Answer: inconclusive: 89.1 µM [inhibitor, single point]

Question: How did the Potency turn out when `CS(=O)(=O)c1ccc(CN2CC[C@@H](c3ccc4ccccc4c3)[C@H](O)C2)cc1` was run?
Answer: inconclusive: 20 µM [inhibitor, full curve]

Question: Which Potency does the source give for `O=C(NC(c1ccc(Cl)cc1)c1cnccn1)C1CCN(Cc2ccc(Cl)cc2)CC1` (configuration not stated) here?
Answer: inconclusive: 56.2 µM [inhibitor, partial curve, poor fit]

Question: How did the Potency turn out when `N#Cc1cccc(NC(=O)NCCNc2ncccc2C(F)(F)F)c1` was run?
Answer: inactive

Question: `CC(=O)NC(CC(=O)Nc1ccccc1C(C)(C)C)c1ccccc1` (configuration not stated) was tested. Which Potency did it give?
Answer: inconclusive: 89.1 µM [inhibitor, single point]

Question: With `CCN(Cc1cccs1)C(=O)c1[nH]c2c(c1C)C(=O)CCC2` as the compound, how does the Potency read?
Answer: inactive

Question: `N#Cc1ccc(COC(=O)C2=NN(C3CCS(=O)(=O)C3)C(=O)CC2)cc1` (configuration not stated) was tested. Which Potency did it give?
Answer: inactive

Question: With `COc1cc(/C=C2/C(=N)N3N=C(C)SC3=NC2=O)ccc1OS(=O)(=O)c1ccc(C)cc1` as the compound, how does the Potency read?
Answer: inactive

Question: Which Potency does the source give for `CCc1c(C)sc(NC(=O)C2CC2c2ccccc2)c1C#N` (configuration not stated) here?
Answer: inconclusive: 35.5 µM [inhibitor, partial curve, poor fit]

Question: For `CCC(C)(CNC(=O)c1cc(-c2ccccc2)on1)N1CCOCC1` (configuration not stated), which Potency is on record?
Answer: inconclusive: 35.5 µM [inhibitor, partial curve, poor fit]

Question: `CC(OC(=O)c1cc(=O)c2ccccc2o1)C(=O)Nc1cccc(C(F)(F)F)c1` (configuration not stated) was tested. Which Potency did it give?
Answer: inconclusive: 44.7 µM [inhibitor, single point]

Question: How did the Potency turn out when `COC(=O)c1cc(NC(=O)c2ccccc2)c(=O)oc1C` was run?
Answer: inactive

Question: For `Cc1ccc(C(C)C)c(OCCNC(=S)Nc2cccc3ccccc23)c1`, which Potency is on record?
Answer: inconclusive: 31.6 µM [inhibitor, partial curve, poor fit]

Question: For `COc1ccccc1-c1nc(NCc2cnc(C)cn2)c2ccccc2n1`, which Potency is on record?
Answer: active: 20 µM

Question: `O=C(CS(=O)(=O)c1ccc(F)cc1)Nc1nnc(-c2ccccc2Cl)o1` was tested. Which Potency did it give?
Answer: inconclusive: 50.1 µM [inhibitor, partial curve, poor fit]

Question: Which Potency does the source give for `Cc1cnc(C(=O)N2CCc3onc(-c4ccc(F)c(F)c4)c3C2)cn1` here?
Answer: inactive

Question: `O=C(NC1CCCC1)N1CC(=O)N2[C@H](C1)[C@@H](c1ccc(Br)cc1)[C@@H]2CO` was tested. Which Potency did it give?
Answer: inconclusive: 50.1 µM [inhibitor, partial curve, poor fit]

Question: How did the Potency turn out when `COc1ccc(N2C(=O)C3(CCCCC3)C2C(=O)NCCc2c(C)noc2C)cc1` (configuration not stated) was run?
Answer: inactive

Question: With `CCc1ccccc1NC(=S)NCc1ccc2c(c1)OCO2` as the compound, how does the Potency read?
Answer: inconclusive: 50.1 µM [inhibitor, partial curve, poor fit]

Question: How did the Potency turn out when `O=C(Nc1nc2c(s1)CCCC2)C1CC(=O)N(CC(F)(F)F)C1` (configuration not stated) was run?
Answer: inconclusive: 100 µM [inhibitor, single point]

Question: With `COc1ccc(-n2cc(-c3ccc(Br)cc3)[nH]c2=S)cc1` as the compound, how does the Potency read?
Answer: inactive

Question: With `Cc1n[nH]c(C)c1CCC(=O)NCC1CCN(c2cc(-c3ccc(F)cc3)[nH]n2)CC1` as the compound, how does the Potency read?
Answer: inactive

Question: How did the Potency turn out when `Cc1nc(Nc2cccc(Cl)c2)c2oc3ccccc3c2n1` was run?
Answer: inconclusive: 28.2 µM [inhibitor, partial curve, poor fit]

Question: Which Potency does the source give for `Cc1ccc(-c2cc(-c3n[nH]c(=S)n3C)c3ccccc3n2)cc1` here?
Answer: inconclusive: 44.7 µM [inhibitor, partial curve, poor fit]

Question: For `COc1ccc2[nH]cc(CCNC(=O)Nc3c(C)cccc3C)c2c1`, which Potency is on record?
Answer: inconclusive: 112 µM [inhibitor, partial curve, poor fit]

Question: `COc1ccc(-c2nc(N/N=C(\C)c3ccc(O)cc3)c3ccccc3n2)cc1` was tested. Which Potency did it give?
Answer: inactive

Question: With `Cc1ccc(NCC(=O)Nc2ccc(CC#N)cc2)c(F)c1` as the compound, how does the Potency read?
Answer: inconclusive: 50.1 µM [inhibitor, partial curve, poor fit]

Question: How did the Potency turn out when `C=CCn1c(=N)n(CC(=O)OCC)c2ccccc21` was run?
Answer: inactive

Question: How did the Potency turn out when `CN(CC(=O)Nc1ccccc1Cl)CC(=O)N(CCC#N)c1ccccc1` was run?
Answer: inconclusive: 0.562 µM [inhibitor, full curve, poor fit]

Question: How did the Potency turn out when `CC1(C(=O)Nc2cccc(OC(F)(F)F)c2)Cc2c(-c3cccc(C(N)=O)c3)ccnc2O1` (configuration not stated) was run?
Answer: inconclusive: 141 µM [inhibitor, single point]

Question: For `CC(=O)NC(Nc1c(C)n(C)n(-c2ccccc2)c1=O)C(Cl)(Cl)Cl` (configuration not stated), which Potency is on record?
Answer: inconclusive: 35.5 µM [inhibitor, partial curve, poor fit]

Question: With `CC(C)CN1CCN(CCc2ccccc2)CC1` as the compound, how does the Potency read?
Answer: inactive

Question: With `Cc1cc(C)cc(C(=O)OCCN2CCN(C3CN(Cc4cn(Cc5ccccc5F)nn4)S(=O)(=O)C3)CC2)c1` (configuration not stated) as the compound, how does the Potency read?
Answer: inconclusive: 12.6 µM [inhibitor, partial curve, poor fit]
